# The supplement of paper PMC12889115
# The list shows a part of the results. Values are raw readings; no control value is given beside them.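 Primary screen: polymyxin B was added at a level permeabilizing Salmonella outer membranes while sparing inner membranes. DMSO wells, both with and without polymyxin B, established maximum growth. Plate-to-plate variation meant each plate was ranked on its own, and the lowest-OD600 compounds were selected as hits.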
# Test system: Salmonella enterica serovar Typhimurium SL1344
# Assay: bacterial growth OD600 after 18 h with compound and polymyxin B; higher = more bacterial growth (less inhibition)
# Settings: 50 µM, Mueller-Hinton broth
compound,measurement,setting,value
COc1ccccc1C(=O)N[C@@H]1c2ccccc2C2(CCN(C(=O)CC3CCCC3)CC2)[C@H]1OC,bacterial growth OD600,polymyxin B 0.75 µg/mL,0.028
COCCc1nc2ccc(C(=O)N3CCCC3c3nc4ccc(C)cc4[nH]3)cc2o1 (stereo unspecified),bacterial growth OD600,polymyxin B 1 µg/mL,0.893
CSc1ccc(CC2(CCC(=O)N(C)Cc3cccc(-n4nc(C)cc4C)c3)CCC(=O)N2)cc1 (stereo unspecified),bacterial growth OD600,polymyxin B 0.75 µg/mL,0.817
CC(C)C(=O)N1CCC2(CCCN(Cc3cccc(F)c3F)C2=O)C1 (stereo unspecified),bacterial growth OD600,polymyxin B 1 µg/mL,0.846
COc1cc(CN2CCc3[nH]nc(-c4ccccc4F)c3C2)cc2c1OCO2,bacterial growth OD600,polymyxin B 0.75 µg/mL,0.736
COc1ccc(OC2CCN(c3nncc(-c4c(OC)cccc4OC)n3)CC2)cc1,bacterial growth OD600,polymyxin B 1 µg/mL,0.01
O=C(NCC1Cc2c(F)ccc(-c3ccncc3)c2O1)c1cc(Cl)ccc1F (stereo unspecified),bacterial growth OD600,polymyxin B 0.75 µg/mL,0.002
C=C(C)CN(CC)C(=O)CC1(c2ccccc2OC)CC(=O)N(CCCOC)C1=O (stereo unspecified),bacterial growth OD600,polymyxin B 0.75 µg/mL,0.785
COCC(=O)Nc1cc(C(=O)N2CCC(c3ccncc3)CC2)c2c(c1)nc(C1CCC1)n2C,bacterial growth OD600,polymyxin B 0.75 µg/mL,0.932
COc1ccccc1C1(CC(=O)N2CCC(Cc3ccccc3)CC2)CC(=O)N(C)C1=O (stereo unspecified),bacterial growth OD600,polymyxin B 0.75 µg/mL,0.411
CN(CC1COc2ccccc2O1)C(=O)c1cn(Cc2ccccc2Cl)nn1 (stereo unspecified),bacterial growth OD600,polymyxin B 1 µg/mL,1.01
O=C(c1ccc(NCC2CCCOC2)nc1)N1CCC(CCn2cccn2)CC1 (stereo unspecified),bacterial growth OD600,polymyxin B 1 µg/mL,0.962
COc1ccc(F)c(CNC2CCCc3nc(N4CCC(CO)CC4)ncc32)c1 (stereo unspecified),bacterial growth OD600,polymyxin B 0.75 µg/mL,0.875
COc1cc(NC(=O)CCC2CCCN(C(=O)c3csnn3)C2)cc(OC)c1 (stereo unspecified),bacterial growth OD600,polymyxin B 0.75 µg/mL,0.812
COCCCN1C(=O)CC(CC(=O)N2CC3CC4CC(C3)CC2C4)(c2ccccc2OC)C1=O (stereo unspecified),bacterial growth OD600,polymyxin B 0.75 µg/mL,0.7
O=C(c1cn2ccccc2n1)N1CCOC(CC2CCCCC2)C1 (stereo unspecified),bacterial growth OD600,polymyxin B 0.75 µg/mL,0.863
Cc1nnc(SCC(=O)NC2CC(C)(C)Cc3c2cnn3-c2ccc(F)cc2)o1 (stereo unspecified),bacterial growth OD600,polymyxin B 1 µg/mL,0.761
Cc1nc(N2CCC(NC3(c4ccccc4)CC3)CC2)nc2ccc(F)cc12,bacterial growth OD600,polymyxin B 0.75 µg/mL,0.019
O=C(CCn1cncn1)N1CCc2[nH]nc(-c3ccc(C(F)(F)F)cc3)c2C1,bacterial growth OD600,polymyxin B 0.75 µg/mL,0.898
CN(CC1Cc2ccccc2O1)C(=O)c1ccc(-n2cc(NC(=O)c3cccnc3)cn2)cc1 (stereo unspecified),bacterial growth OD600,polymyxin B 0.75 µg/mL,0.826
COc1cc(CN2CCN(Cc3cc(F)cc(F)c3)CC2CCO)cc(OC)c1 (stereo unspecified),bacterial growth OD600,polymyxin B 1 µg/mL,0.899
Cc1ccc(-n2ncc3c2CC(C)(C)CC3NC(=O)CCc2cn[nH]c2)cc1 (stereo unspecified),bacterial growth OD600,polymyxin B 0.75 µg/mL,0.75
O=C(NCc1cccnc1Oc1ccccc1)C1CCOC1 (stereo unspecified),bacterial growth OD600,polymyxin B 1 µg/mL,0.957
COc1ccccc1CN(C)C(=O)c1coc(COc2ccccc2)n1,bacterial growth OD600,polymyxin B 1 µg/mL,0.656
Cc1cc(C)n(CCNC(=O)c2ccccc2OC2CCN(S(C)(=O)=O)CC2)n1,bacterial growth OD600,polymyxin B 1 µg/mL,0.815
Cc1cc(CNc2ccc(C(=O)NCCC3COc4ccccc4O3)cn2)no1 (stereo unspecified),bacterial growth OD600,polymyxin B 1 µg/mL,0.969
Cc1ccc(OCc2cc(C(=O)N(C)CCn3nc(C)cc3C)no2)cn1,bacterial growth OD600,polymyxin B 1 µg/mL,0.88
COc1cc(CC2(CCC(=O)N3CCOc4ccc(Cl)cc4C3)CCC(=O)N2)ccc1F (stereo unspecified),bacterial growth OD600,polymyxin B 0.75 µg/mL,0.775
COc1ccccc1CCN1CCCC(CN(C)C(=O)CCC(F)(F)F)C1 (stereo unspecified),bacterial growth OD600,polymyxin B 1 µg/mL,0.975
Cc1cnc(SCCN2CCOCC2)nc1C1CCCN(C(=O)CCc2scnc2C)C1 (stereo unspecified),bacterial growth OD600,polymyxin B 0.75 µg/mL,0.938
C#Cc1cccc(C(=O)N2CCC3(CC2)c2ccccc2[C@@H](NC(=O)COc2ccccc2)[C@@H]3OC)c1,bacterial growth OD600,polymyxin B 0.75 µg/mL,0.097

# Structures from the list above with an NH in an aromatic ring, in the order listed:
compound,measurement,setting,value
COCCc1nc2ccc(C(=O)N3CCCC3c3nc4ccc(C)cc4[nH]3)cc2o1 (stereo unspecified),bacterial growth OD600,polymyxin B 1 µg/mL,0.893
COc1cc(CN2CCc3[nH]nc(-c4ccccc4F)c3C2)cc2c1OCO2,bacterial growth OD600,polymyxin B 0.75 µg/mL,0.736
O=C(CCn1cncn1)N1CCc2[nH]nc(-c3ccc(C(F)(F)F)cc3)c2C1,bacterial growth OD600,polymyxin B 0.75 µg/mL,0.898
Cc1ccc(-n2ncc3c2CC(C)(C)CC3NC(=O)CCc2cn[nH]c2)cc1 (stereo unspecified),bacterial growth OD600,polymyxin B 0.75 µg/mL,0.75
